Measurements taken from PubChem BioAssay AID540276 (National Center for Advancing Translational Sciences (NCATS), 2011).
The campaign covered roughly 300,000 compounds. About 5,400 (1.8%) were called active. This list was built around the results that the source calls inconclusive (neither active nor inactive); the mix of calls is not that of the screen. Calls come from the whole dose curve; tested in HEK293 cells. Potencies beside an inconclusive call are fits to weak or partial responses and may not hold up.

Assay: qHTS for inhibitors of binding or entry into cells for Marburg Virus
Conditions: Marburg virus pseudotyped entry inhibition, cell reporter; series mostly up to 37.8 µM
Potency is the fitted concentration of half-maximal effect.

Row | Compound | Potency
1 | Cc1ccc(C(=O)CSc2nc3ccccc3c(=O)n2N)o1 | inconclusive: 10.3 µM [inhibitor, partial curve]
2 | CN(C)CCCOc1ccc2c(c1)Sc1ccccc1CC2=O | inconclusive: 20.6 µM [inhibitor, single point]
3 | COc1cc(CN2CCNC(=O)C2CC(=O)NCCCN2CCOCC2)cc(OC)c1 (stereo unspecified) | inconclusive: 3.16 µM [inhibitor, partial curve, poor fit]
4 | NC(=S)NNc1cccc(Cl)c1 | inactive
5 | Cc1ccc(Cl)cc1N1CCN(C(=O)Cc2ccc(-n3c(=O)[nH]c4ccsc4c3=O)cc2)CC1 | inconclusive: 0.1 µM [inhibitor, full curve, poor fit]
6 | O=C(CCN1CCN(c2ccccc2)CC1)NNC(=O)c1cccc2ccccc12 | inactive
7 | O=C(CCSc1nnnn1-c1ccccc1)N1CCOCC1 | inactive
8 | Cc1ccc(-c2nnc(SCC(=O)N(C)C)nc2-c2ccc(C)cc2)cc1 | inconclusive: 35.5 µM [inhibitor, single point]
9 | OC(Cc1ccncc1)c1ccccc1Cl (stereo unspecified) | inconclusive: 0.562 µM [inhibitor, full curve, poor fit]
10 | O=C(Nc1c2c(nn1-c1ccc(F)cc1)CS(=O)(=O)C2)c1ccc(S(=O)(=O)N2CCOCC2)cc1 | inactive
11 | Cc1ccc2c(c1)C(c1ccc(F)cc1)N(C(=O)c1ccccc1Br)CC(=O)N2 (stereo unspecified) | inconclusive: 15.8 µM [inhibitor, single point]
12 | Cc1ccc(-c2csc(NC(=O)c3ccccc3Cl)c2C(=O)O)cc1 | inconclusive: 35.5 µM [inhibitor, partial curve, poor fit]
13 | CCC(C)(C)C1CCC2(CC1)NC(=O)N(CC(=O)Nc1nc(-c3ccc(C)cc3)cs1)C2=O (stereo unspecified) | inconclusive: 17.8 µM [inhibitor, single point]
14 | O=c1[nH]c(CN2CCN(Cc3ccc4c(c3)OCO4)CC2)nc2ccccc12 | inactive
15 | Cc1ccc(C(=O)COC(=O)c2cnccn2)cc1 | inconclusive: 13 µM [activator, partial curve]
16 | Cc1ccc(/C=C2/C(=O)NC(=O)N(CCc3ccc(F)cc3)C2=O)o1 | inconclusive: 3.16 µM [activator, partial curve, poor fit]
17 | O=C(CCN1CCCCC1)c1ccc2c(c1)OCO2 | inactive
18 | COc1ccc(/C=N/OC(=O)Nc2ccccc2OC)cc1 | inconclusive: 1 µM [inhibitor, full curve, poor fit]
19 | CCC(=O)Nc1ccc(/C(C)=N\NS(=O)(=O)c2ccc(C)cc2)cc1 | inconclusive: 35.5 µM [inhibitor, single point]
20 | COc1cc(C(=O)OCC(=O)Nc2ccc(C(C)=O)cc2)ccc1OCC(=O)N1CCOCC1 | inconclusive: 0.251 µM [activator, full curve, poor fit]
21 | Nc1ccc2c(c1)Cc1cc([N+](=O)[O-])ccc1-2 | inconclusive: 3.55 µM [activator, single point]
22 | CCC(C)NCC(=O)Nc1cc(S(=O)(=O)N(CC)c2ccccc2)ccc1Cl (stereo unspecified) | active: 20.6 µM
23 | COc1ccc(OCC(=O)N(C)Cc2ccccc2)cc1 | inactive
24 | O=C(c1ccco1)N1CCN(C(=O)c2cn(-c3ccccc3)nc2-c2ccc(F)cc2)CC1 | inconclusive: 0.1 µM [inhibitor, full curve, poor fit]

Row | Compound | Potency
25 | CCN(CC)CCCNC(=O)c1cc(-c2ccc3c(c2)OCO3)on1 | inconclusive: 35.5 µM [inhibitor, single point]
26 | O=C(Nc1ccc2c(c1)OCO2)C1CCN(Cc2cnn(-c3ccccc3)c2-n2cccc2)CC1 | inconclusive: 35.5 µM [inhibitor, single point]
27 | Clc1ccc(OCc2cc(-c3ccccc3)no2)c(Cl)c1 | active: 7.08 µM
28 | O=C(O)c1nn(CC(=O)N2CCC(Cc3ccccc3)CC2)c(=O)c2ccccc12 | inactive
29 | O=C(c1cc(-c2ccccc2Cl)nc2ccc(Br)cc12)N1CCN(c2ccccn2)CC1 | inconclusive: 35.5 µM [inhibitor, single point]
30 | O=c1c2ccccc2sn1-c1ccccc1 | inconclusive: 25.9 µM [inhibitor, partial curve, poor fit]
31 | O=C(NC(=O)c1ccccc1F)OCc1ccc(Cl)cc1Cl | inactive
32 | O=S(=O)(c1ccc(Cl)cc1)N1CCN=C1SCc1cccc(Cl)c1 | inactive
33 | Cn1c(N)c(C(=O)COC(=O)c2ccccc2C(=O)c2ccc(Cl)cc2)c(=O)n(C)c1=O | inconclusive: 12.6 µM [inhibitor, single point]
34 | Cc1ccc(S(=O)(=O)NCC2NCCc3ccccc32)cc1 (stereo unspecified) | inconclusive: 35.5 µM [inhibitor, partial curve, poor fit]
35 | Cc1onc(-c2ccccc2Cl)c1C(=O)N1CCCCC1C (stereo unspecified) | inconclusive: 2.82 µM [activator, partial curve, poor fit]
36 | CCOC(=O)c1cnc2ccc(C(=O)OC)cc2c1Nc1ccc(C(=O)O)cc1 | inconclusive: 7.94 µM [inhibitor, full curve, poor fit]
37 | O=C(NCc1cccnc1)Nc1cccc(NC(=O)NCc2cccnc2)c1 | inactive
38 | O=C(CSc1ccc(-c2ccc(F)cc2)nn1)N1CCCCC1 | inconclusive: 16.4 µM [inhibitor, single point]
39 | C=CCOC(=O)C(C(C)=O)[C@@H](NC(=O)OC)c1ccc(F)cc1 (stereo partly specified) | inactive
40 | COc1ccc(S(=O)(=O)NCc2ccncc2)cc1NC(=O)c1ccc(Cl)cc1 | inconclusive: 25.1 µM [inhibitor, single point]
41 | Cc1nc(-c2ccccc2)cn2c1nc1ccccc12 | inconclusive: 2.24 µM [inhibitor, single point]
42 | CNc1ccccc(-c2ccc3cc4c(cc3n2)OCO4)c1=O | inactive
43 | Cc1[nH]nc(Nc2ccc(C(C)C)cc2)c1[N+](=O)[O-] | inconclusive: 14.1 µM [inhibitor, single point]
44 | CN(CC(=O)Nc1cccc(F)c1)C(=O)c1ccc(N2CCCCCC2)c([N+](=O)[O-])c1 | inconclusive: 15.8 µM [inhibitor, single point]
45 | CCn1c(=O)c(C(=O)Nc2ncccc2C)c(O)c2ccccc21 | inconclusive: 10 µM [inhibitor, partial curve, poor fit]
46 | CCON1C(=O)C2(CCCCC2)C(=O)C12C=CCCC2 (stereo unspecified) | inactive
47 | COc1ccc(CN2CCN(C(=O)c3ccc(S(=O)(=O)NCc4ccco4)cc3)CC2)cc1 | active: 0.316 µM
48 | CCCc1c(NC(=O)Nc2ccc(Cl)cc2Cl)cnn1-c1ccccc1 | active: 0.891 µM

Row | Compound | Potency
49 | O=C(NCCC1CCCCN1S(=O)(=O)c1ccccc1)C(=O)NCc1cccnc1 (stereo unspecified) | inactive
50 | CCOC(=O)c1ccc(NC(=O)CC2C(=O)N(c3ccc(F)cc3)C(=O)N2Cc2ccc3c(c2)OCO3)cc1 (stereo unspecified) | inconclusive: 10 µM [inhibitor, single point]
51 | Cn1cccc1C(=O)C(=O)Nc1ccccc1 | inconclusive: 6.31 µM [activator, single point]
52 | O=[N+]([O-])c1ccc2c(c1)C(=NO)c1cc(Cl)c(Cl)cc1-2 | inconclusive: 35.5 µM [inhibitor, single point]
53 | COc1ccc(NC(=O)c2nc3nc(C)cc(C(F)F)n3n2)c(C)c1 | inconclusive: 5.62 µM [activator, single point]
54 | Oc1ccc(-c2[nH]ncc2-c2cccc3cccnc23)c(O)c1 | inconclusive: 16.4 µM [inhibitor, partial curve, poor fit]
55 | O=S(=O)(NC1CCCC1)c1cccc(-c2nnc(-c3ccccc3)o2)c1 | inactive
56 | O=c1c2ccccc2[nH]c(=S)n1C1CCCCC1 | inconclusive: 6.31 µM [inhibitor, single point]
57 | Cn1cc(CN2CCN(c3ncccn3)CC2)c(-c2cccc(Cl)c2)n1 | inconclusive: 4.47 µM [activator, single point]
58 | Nc1c(C(=O)NCCN2CCOCC2)c2nc3ccccc3nc2n1CCc1ccccc1 | inconclusive: 13 µM [inhibitor, partial curve, poor fit]
59 | O=C(Nc1ccccc1N1CCOCC1)c1cc2ccccc2o1 | inactive
60 | Cc1ccc2oc3c(c(=O)c2c1)C(c1ccc(F)cc1)N(c1nc(C)c(C)s1)C3=O (stereo unspecified) | inactive
61 | Cc1ccccc1OCCn1c(=S)[nH]c2ccccc21 | inconclusive: 3.98 µM [inhibitor, single point]
62 | O=C(Cn1c2ccccc2c(=O)c2ccccc21)Nc1cccc(F)c1 | inactive
63 | CCCCCn1c(NC(=O)c2ccco2)c(C(=O)OCC)c2nc3ccccc3nc21 | active: 4.47 µM
64 | CC1CC(C)CN(C(=O)COC(=O)c2cc3ccccc3cc2O)C1 (stereo unspecified) | inactive
65 | COc1ccc(N2CCN(S(=O)(=O)c3ccc4c(c3)CCCC4)CC2)c([N+](=O)[O-])c1 | inconclusive: 13 µM [inhibitor, partial curve, poor fit]
66 | CCOC(=O)C1(Cc2cccc(F)c2)CCN(C(=O)C2CCCO2)CC1 (stereo unspecified) | inactive
67 | CCOc1ccc(C(=O)N2CCCCC2CCN2CCOCC2)cc1 (stereo unspecified) | inactive
68 | COc1ccc(NC(=O)c2sc3nc(C)c(C(=O)Nc4ccc(Cl)cc4)c(-c4ccc(Br)cc4)c3c2N)cc1 | inconclusive: 1.78 µM [inhibitor, full curve, poor fit]
69 | Cc1ccc(CSc2nc3ccccc3cc2C=O)cc1 | inconclusive: 35.5 µM [inhibitor, single point]
70 | CC1=C(C)CC(C(=O)NNC(=O)c2cccc(Cl)c2)C(C(=O)O)C1 (stereo unspecified) | inactive
71 | Cc1cccc(C)c1-n1cccc1/C=C1\SC(=S)N(c2cccc(C(=O)O)c2)C1=O | inconclusive: 35.5 µM [activator, single point]

Reformatted in markdown: part of the list above.

| Row | Compound | Potency |
| --- | --- | --- |
| 6 | O=C(CCN1CCN(c2ccccc2)CC1)NNC(=O)c1cccc2ccccc12 | inactive |
| 32 | O=S(=O)(c1ccc(Cl)cc1)N1CCN=C1SCc1cccc(Cl)c1 | inactive |
| 65 | COc1ccc(N2CCN(S(=O)(=O)c3ccc4c(c3)CCCC4)CC2)c([N+](=O)[O-])c1 | inconclusive: 13 µM [inhibitor, partial curve, poor fit] |
